Experimental data taken from PubChem BioAssay AID1347423 (Functional Genomics Laboratory (NCATS/FGL), 2020).
Among all 52,000 sequences or so, about 210 (0.4%) were called active.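 Rule for the calls: active = gene whose silencing raises cell survival under the drug, median off-target-corrected z-score across its silencing RNAs 2 or more; inactive = the rest.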 Some of the results follow.

Test: Resistance to Poly (ADP-Ribose) Polymerase inhibitor: Gene Identification via Genome-wide siRNA Screen
Conditions: mouse BRCA2 R2336H ES cells, olaparib, CellTiter-Glo viability; active compounds read high
How it was run: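 Genome-wide siRNA screen (3 siRNAs/gene, 20 nM) in mouse ES cells carrying hypomorphic BRCA2 R2336H; olaparib 500 nM added 48 h post-transfection, CellTiter-Glo viability 72 h later. Normalized to plate-median negative control; MAD z-scores, gene median, seed-adjusted.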

Sequence	z-score
GCUACAAGAGAACAAUAGCTT against Lcn2	inactive: 0.781
GGAAUUCAACUUCUUCAGUTT against Il8ra	inactive: 0.96
GCAAUCUGUCCUUCUGUGATT against Olfr1133	inactive: 1.71
GGCUGUCCAGACUAGUUCUTT against BC040823	inactive: -1.97
GCACCUAGACAAUAACUUATT against 15-Sep	inactive: 0.413
GGACAGAAGUGCAACAUCUTT against Dio1	inactive: 1.12
ACAAAUCCACGUGCAAUGUTT against Cyp2d9	inactive: 0.412
CGUGAGAAAGCCAAUCCCUTT against 0610005I04	inactive: 0.988
GCGUGUUCGGUUUACCAAGTT against Eif2c1	inactive: -0.745
GGCUUAAGGACAAGAAGAUTT against Gsn	inactive: -1.9
GGCUUUCGGUCUCUUAGUCTT against BC052046	inactive: -0.395
CCCUGGUCGUCAUUUUCAATT against 4932411A10Rik	inactive: -0.146
GGACACCUCCAAGAAGAGUTT against Ap1s1	inactive: 0.781
GCUGAAACAAAGGGUAUAUTT against Map2k7	inactive: -3.33
GGGCAAGGAUUCCCUGUAUTT against Rpl36al	inactive: -0.491
GGAAUUUAGAAAAUGUGACTT against V1re6	inactive: -0.218
CCCGUAACCAUUUACUGGUTT against Tyro3	inactive: 0.125
GCGUCAAAAUUAUCCGAAATT against 1110007F05Rik	inactive: 1.88
GCUUCCAAGAUGGAACUACTT against Psmb10	inactive: 1.16
GGAGUGAUGAUCAAAAUCCTT against 1110051B16Rik	inactive: 0.705
GCCGAGAAUUAUAUUUAACTT against Itga2	inactive: 0.48
GGUUUCCUAGAGAGUAAAATT against 4930521E07Rik	inactive: 1.04

Sequence	z-score
CCCUUAAAUCUGGAAGCAGTT against 2700083E18Rik	inactive: 0.348
GGUUUUUCUAGCUACAUUATT against Slc17a5	inactive: 1.4
CCAUGUCUAUGAGUGUAGATT against 2310057J16Rik	inactive: -0.0866
GGCAGUGAUAUACAGGUGGTT against Ptpn14	inactive: 0.964
GCACUAUGAACGGAAGUUGTT against Map3k12	inactive: 0.155
CCAAGGCUUGUGGCCUUAUTT against Comtd1	inactive: -2.51
GGGAGGGUCUAUUGUUAAUTT against BC009118	inactive: 0.737
GGCCUUCUCUGUCUUCUACTT against Olfr234	inactive: 0.203
GGAGGAGAGGAGAAUAGCATT against Atp5k	inactive: 0.394
GUGCUUGAUCUCUUCGAUGTT against Ppt2	inactive: 0.582
GGAGAACAAAGUCCACACGTT against AW125753	inactive: -0.114
GGUCUUUCUGACGCAGACUTT against G1p2	inactive: -1.54
GCCUAAGGAUGAGUUUCAATT against 1110020P15Rik	inactive: 1.19
GGCUGUGGUCUUCAUUGAATT against Tpcn2	inactive: -0.432
GGUUGUUAUGGUCUCAUAUTT against 2610040E16Rik	inactive: -0.586
GGGCUAAGUACCAAACUCATT against Ly6e	inactive: -1.94
GGGAAACAAAAAAGAUUUCTT against Ptpn13	inactive: 0.393
CCUACCGAGGUCAAGAAUUTT against Asf1a	inactive: -1.06
GCUUCAAGCCUGAGAGUAUTT against Gm443	inactive: -2.56
GGACUCAUCUUUAUUAUUCTT against Olfr393	inactive: 0.449
GGAUCAGAUUCUCUUCUUCTT against Gypa	inactive: 0.378
GGAAAGACCACAUUAUUAATT against Orc4l	inactive: -1.43

5 entries picked at random from the list so far:
Sequence	z-score
GGGCUAAGUACCAAACUCATT against Ly6e	inactive: -1.94
GUGCUUGAUCUCUUCGAUGTT against Ppt2	inactive: 0.582
GGCUUUCGGUCUCUUAGUCTT against BC052046	inactive: -0.395
GGAUCAGAUUCUCUUCUUCTT against Gypa	inactive: 0.378
GGCUGUCCAGACUAGUUCUTT against BC040823	inactive: -1.97

Next part:

Sequence	z-score
GCUCAGUACUCAGAAGUGCTT against Olfr578	inactive: 0.0755
GGUUGAAGUUGAAGUUUAATT against Top3a	inactive: -0.517
GCUAGUUGAGGACUGAUAUTT against Chrna4	inactive: 0.861
GGCUUUCGCUAGAAAACUCTT against Sftpc	inactive: 0.15
GGCGAUUUACAACUUUGGATT against Hist3h2a	inactive: 0.701
CCAAUUAUGUGAGAAGUGATT against Snx24	inactive: 0.487
CGAAAUACCGAUGACUGGGTT against 4933416E05Rik	inactive: -0.709
GCAUCAAAUUUUGAUAAGCTT against BC037674	inactive: 0.519
GGUCCAUAAAGAAACCAUATT against Zfp207	inactive: -2.51
GGAUACUUUUCUUCUAAGATT against Krtap15	inactive: 0.47
GGAAAUCCCGGGAUGUCAGTT against Pnliprp2	inactive: 0.493
CUUUGUACUAUGGUUCAAUTT against Olfr1010	inactive: 0.195
GGCUGUUUCCAAAAAGAAGTT against Hist1h1b	inactive: -0.335
GGCUCUUAUUUUUGUAAAGTT against Rgl1	inactive: 0.849
GGAGCUGCGCUUGACAUUGTT against Neil1	inactive: 0.669
AGAACAGAGGGCUACCUUGTT against Ly6g6e	inactive: -0.705
CCUGGACACGAUUUCAGAGTT against Rbm6	inactive: 0.57
GCAAAUGUUGCCCAUCGUGTT against Ppp2r1b	inactive: -0.878
GGAGAGCGAAGAAAAAAUGTT against Birc2	inactive: 0.0315
CCAAGUGUGAUCUCCAUCATT against LOC331392	inactive: -1.49
GGCCAAACUAAUGUUUUUCTT against 1700058C01Rik	inactive: 0.283
GGAAAGUAACUAAAGGCAATT against Arl10c	inactive: -0.298
